According to the supplement of paper PMC10849652:
This is one part of the list.

Chains of the proteins cited; added tags and fusions are not shown. Lines headed by an entry give the natural chain unless they say otherwise; changes in a name come on top.
UniProt Q9Y613: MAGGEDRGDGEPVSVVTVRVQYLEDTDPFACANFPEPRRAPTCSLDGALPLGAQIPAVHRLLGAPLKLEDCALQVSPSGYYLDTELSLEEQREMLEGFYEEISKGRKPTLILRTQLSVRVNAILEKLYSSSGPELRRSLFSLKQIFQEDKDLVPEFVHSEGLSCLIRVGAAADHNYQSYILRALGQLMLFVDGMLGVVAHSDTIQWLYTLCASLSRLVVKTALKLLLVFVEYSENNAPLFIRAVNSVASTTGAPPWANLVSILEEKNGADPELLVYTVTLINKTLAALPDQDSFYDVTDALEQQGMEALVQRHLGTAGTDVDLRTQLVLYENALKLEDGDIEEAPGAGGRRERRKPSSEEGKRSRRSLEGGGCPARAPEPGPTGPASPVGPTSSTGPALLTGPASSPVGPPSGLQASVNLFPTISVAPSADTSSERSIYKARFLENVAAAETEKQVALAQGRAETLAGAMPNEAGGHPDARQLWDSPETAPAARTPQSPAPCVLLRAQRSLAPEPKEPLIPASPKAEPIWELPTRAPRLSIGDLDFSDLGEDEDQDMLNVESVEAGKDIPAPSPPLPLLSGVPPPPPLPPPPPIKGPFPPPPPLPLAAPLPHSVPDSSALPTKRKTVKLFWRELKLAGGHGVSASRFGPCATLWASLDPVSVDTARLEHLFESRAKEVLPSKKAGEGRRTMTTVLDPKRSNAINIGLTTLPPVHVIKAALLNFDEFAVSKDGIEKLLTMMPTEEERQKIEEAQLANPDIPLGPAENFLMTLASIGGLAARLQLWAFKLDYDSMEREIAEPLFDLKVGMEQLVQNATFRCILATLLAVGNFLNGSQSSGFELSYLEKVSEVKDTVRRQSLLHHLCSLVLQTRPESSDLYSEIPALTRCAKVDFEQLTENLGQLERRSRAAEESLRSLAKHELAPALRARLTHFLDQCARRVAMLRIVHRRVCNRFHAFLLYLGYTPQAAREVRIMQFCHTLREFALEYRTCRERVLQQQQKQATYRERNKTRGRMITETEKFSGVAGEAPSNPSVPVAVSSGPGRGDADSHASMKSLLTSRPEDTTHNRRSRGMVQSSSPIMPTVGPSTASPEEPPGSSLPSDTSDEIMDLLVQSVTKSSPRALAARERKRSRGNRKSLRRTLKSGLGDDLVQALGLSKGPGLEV
UniProt P14324: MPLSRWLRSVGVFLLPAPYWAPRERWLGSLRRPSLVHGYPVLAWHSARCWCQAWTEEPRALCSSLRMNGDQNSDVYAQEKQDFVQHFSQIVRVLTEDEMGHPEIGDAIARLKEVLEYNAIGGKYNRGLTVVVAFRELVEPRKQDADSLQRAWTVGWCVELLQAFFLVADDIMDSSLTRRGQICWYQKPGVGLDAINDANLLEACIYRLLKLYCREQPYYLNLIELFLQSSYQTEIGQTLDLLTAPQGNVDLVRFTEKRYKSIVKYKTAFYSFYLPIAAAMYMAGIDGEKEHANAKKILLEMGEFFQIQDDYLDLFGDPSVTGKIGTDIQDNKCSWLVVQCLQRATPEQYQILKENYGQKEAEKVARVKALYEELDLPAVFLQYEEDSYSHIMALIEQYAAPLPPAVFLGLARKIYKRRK
UniProt P37268: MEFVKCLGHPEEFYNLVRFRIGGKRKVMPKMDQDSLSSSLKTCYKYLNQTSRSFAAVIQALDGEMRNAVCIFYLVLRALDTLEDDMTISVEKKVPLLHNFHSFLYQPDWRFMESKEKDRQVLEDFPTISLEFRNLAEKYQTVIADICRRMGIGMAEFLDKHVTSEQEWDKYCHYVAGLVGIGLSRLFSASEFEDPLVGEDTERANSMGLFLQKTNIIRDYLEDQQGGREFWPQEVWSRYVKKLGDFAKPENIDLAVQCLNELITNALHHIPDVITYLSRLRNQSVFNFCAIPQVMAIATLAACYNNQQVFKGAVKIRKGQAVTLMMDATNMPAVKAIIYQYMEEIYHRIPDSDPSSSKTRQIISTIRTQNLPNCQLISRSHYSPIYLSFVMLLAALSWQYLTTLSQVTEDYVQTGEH
UniProt Q14318: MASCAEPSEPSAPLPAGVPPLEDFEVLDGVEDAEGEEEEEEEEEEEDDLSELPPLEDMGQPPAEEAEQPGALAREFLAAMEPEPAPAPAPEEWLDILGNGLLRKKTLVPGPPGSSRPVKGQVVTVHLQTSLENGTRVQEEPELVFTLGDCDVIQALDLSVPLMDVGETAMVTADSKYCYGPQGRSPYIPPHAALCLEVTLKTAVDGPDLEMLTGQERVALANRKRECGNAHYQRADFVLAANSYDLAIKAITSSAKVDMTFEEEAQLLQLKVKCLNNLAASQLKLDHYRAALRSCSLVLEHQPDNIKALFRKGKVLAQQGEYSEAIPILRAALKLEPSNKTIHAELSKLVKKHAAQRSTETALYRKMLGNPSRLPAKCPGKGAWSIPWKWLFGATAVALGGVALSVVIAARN
UniProt Q9UK99: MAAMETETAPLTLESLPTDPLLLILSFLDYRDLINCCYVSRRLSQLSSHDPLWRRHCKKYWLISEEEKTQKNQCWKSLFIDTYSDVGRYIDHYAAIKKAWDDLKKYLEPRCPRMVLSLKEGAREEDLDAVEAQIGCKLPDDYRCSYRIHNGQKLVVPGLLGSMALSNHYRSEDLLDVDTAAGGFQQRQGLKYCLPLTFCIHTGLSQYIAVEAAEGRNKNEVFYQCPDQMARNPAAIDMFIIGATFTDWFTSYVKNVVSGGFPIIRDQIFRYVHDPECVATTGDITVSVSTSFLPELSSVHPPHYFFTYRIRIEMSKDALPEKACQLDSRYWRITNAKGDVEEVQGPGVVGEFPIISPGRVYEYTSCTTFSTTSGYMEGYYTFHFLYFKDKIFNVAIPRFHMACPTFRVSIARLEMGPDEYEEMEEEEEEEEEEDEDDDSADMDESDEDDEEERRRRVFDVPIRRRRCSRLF
UniProt Q8NFG4: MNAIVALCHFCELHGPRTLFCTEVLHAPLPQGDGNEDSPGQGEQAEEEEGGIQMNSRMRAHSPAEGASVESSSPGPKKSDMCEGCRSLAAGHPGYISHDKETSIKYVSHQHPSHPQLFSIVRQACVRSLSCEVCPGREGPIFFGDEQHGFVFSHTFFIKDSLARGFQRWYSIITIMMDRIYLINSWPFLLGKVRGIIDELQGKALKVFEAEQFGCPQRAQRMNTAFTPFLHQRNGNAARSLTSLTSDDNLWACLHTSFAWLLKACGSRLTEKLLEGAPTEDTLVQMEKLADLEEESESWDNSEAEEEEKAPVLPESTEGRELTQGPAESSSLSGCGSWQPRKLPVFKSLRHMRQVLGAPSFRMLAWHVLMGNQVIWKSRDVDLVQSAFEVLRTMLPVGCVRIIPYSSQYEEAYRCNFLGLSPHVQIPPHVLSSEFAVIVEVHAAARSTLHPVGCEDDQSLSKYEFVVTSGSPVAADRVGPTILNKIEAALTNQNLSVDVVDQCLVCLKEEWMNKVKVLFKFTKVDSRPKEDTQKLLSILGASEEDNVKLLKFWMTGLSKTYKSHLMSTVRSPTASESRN
UniProt Q13451: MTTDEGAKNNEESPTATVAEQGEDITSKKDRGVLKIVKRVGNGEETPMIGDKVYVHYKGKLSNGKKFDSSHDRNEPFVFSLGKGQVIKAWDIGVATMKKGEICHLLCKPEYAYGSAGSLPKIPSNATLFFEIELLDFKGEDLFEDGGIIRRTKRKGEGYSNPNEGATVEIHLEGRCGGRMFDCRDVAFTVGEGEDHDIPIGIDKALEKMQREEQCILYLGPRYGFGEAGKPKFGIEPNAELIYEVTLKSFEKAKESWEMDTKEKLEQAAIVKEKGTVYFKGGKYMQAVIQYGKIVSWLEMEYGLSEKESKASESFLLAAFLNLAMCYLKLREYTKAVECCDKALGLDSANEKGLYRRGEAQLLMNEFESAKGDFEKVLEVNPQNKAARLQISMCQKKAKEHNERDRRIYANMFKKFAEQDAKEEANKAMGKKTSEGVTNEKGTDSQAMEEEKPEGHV
UniProt Q96HJ9: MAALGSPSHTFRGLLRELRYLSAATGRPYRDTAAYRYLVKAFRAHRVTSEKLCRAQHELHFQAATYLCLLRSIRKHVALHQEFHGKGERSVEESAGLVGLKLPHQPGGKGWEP
UniProt O75955: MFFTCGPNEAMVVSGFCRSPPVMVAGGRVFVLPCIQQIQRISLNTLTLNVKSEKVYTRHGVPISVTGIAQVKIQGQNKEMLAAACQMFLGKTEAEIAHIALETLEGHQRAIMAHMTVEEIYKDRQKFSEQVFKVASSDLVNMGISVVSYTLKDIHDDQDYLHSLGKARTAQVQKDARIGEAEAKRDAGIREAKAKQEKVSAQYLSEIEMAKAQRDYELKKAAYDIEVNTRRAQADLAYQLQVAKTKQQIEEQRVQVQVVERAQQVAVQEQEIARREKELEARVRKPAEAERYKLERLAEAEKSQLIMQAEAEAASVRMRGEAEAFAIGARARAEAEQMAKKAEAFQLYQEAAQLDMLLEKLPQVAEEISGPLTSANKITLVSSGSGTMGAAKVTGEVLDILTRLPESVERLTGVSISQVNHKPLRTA
UniProt Q9Y680: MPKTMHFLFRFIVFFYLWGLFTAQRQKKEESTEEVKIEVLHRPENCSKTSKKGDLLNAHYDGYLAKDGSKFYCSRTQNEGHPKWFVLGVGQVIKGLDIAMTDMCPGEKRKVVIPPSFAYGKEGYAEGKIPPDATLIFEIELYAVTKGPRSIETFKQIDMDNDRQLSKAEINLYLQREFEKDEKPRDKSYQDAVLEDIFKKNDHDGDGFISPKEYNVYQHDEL
UniProt O43427: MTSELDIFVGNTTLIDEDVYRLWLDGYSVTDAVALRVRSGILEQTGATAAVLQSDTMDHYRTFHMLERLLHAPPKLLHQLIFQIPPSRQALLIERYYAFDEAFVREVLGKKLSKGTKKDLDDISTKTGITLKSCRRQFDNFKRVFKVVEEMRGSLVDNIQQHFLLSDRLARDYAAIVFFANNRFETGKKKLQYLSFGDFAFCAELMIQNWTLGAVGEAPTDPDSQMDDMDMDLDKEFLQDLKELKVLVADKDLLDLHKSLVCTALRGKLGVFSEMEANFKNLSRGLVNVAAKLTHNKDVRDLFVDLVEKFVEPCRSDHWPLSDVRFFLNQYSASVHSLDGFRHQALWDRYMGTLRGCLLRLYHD
UniProt Q14192: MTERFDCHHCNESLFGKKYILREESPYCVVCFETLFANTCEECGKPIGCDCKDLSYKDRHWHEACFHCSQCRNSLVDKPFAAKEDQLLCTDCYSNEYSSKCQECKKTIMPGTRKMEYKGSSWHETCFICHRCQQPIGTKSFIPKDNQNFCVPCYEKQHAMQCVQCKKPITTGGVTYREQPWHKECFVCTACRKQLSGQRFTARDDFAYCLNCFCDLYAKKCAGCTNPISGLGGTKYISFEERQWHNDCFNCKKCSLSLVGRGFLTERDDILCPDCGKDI
UniProt P22570: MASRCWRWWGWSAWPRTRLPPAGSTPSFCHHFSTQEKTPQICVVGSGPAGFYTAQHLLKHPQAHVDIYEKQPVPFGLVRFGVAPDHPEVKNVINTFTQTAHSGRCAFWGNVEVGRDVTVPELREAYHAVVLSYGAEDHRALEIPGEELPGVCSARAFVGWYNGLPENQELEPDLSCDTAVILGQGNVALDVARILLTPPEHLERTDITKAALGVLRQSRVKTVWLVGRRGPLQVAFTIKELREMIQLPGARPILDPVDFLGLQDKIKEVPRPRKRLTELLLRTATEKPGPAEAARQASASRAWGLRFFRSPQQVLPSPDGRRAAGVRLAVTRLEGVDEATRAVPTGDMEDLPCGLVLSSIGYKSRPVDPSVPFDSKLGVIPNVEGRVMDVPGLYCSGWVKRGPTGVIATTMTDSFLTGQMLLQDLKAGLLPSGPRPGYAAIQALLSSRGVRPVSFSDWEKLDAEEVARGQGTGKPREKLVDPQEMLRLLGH
UniProt Q9Y3D6: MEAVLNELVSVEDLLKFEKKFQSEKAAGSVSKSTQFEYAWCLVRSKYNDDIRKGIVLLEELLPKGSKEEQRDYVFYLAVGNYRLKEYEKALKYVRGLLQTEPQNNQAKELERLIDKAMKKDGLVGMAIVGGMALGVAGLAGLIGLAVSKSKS
UniProt Q9UKT5: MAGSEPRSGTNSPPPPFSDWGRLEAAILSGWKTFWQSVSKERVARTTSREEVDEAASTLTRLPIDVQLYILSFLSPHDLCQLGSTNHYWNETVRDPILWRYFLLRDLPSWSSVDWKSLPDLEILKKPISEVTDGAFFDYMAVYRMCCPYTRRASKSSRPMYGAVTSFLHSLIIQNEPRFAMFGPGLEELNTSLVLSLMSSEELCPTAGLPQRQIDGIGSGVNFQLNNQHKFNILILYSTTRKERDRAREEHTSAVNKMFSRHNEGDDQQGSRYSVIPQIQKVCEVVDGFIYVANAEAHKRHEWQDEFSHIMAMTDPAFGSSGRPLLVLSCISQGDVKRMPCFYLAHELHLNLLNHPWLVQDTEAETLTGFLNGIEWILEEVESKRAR

How the values were obtained:
Assay in all cases: log2 fold change, soluble protein after heating vs DMSO (PISA); higher = thermal stabilisation; K562 lysate, 10 uM; active = over 0.2 and 3.5 SD of the protein, either way, in both replicates (recomputed)
[1] = compound: CCCS(=O)(=O)Nc1ccc(F)c(C(=O)c2c[nH]c3ncc(-c4ccc(Cl)cc4)cc23)c1F [vemurafenib]
Procedure, shortened: (§1)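 Quantification was by TMTpro 16plex LC-MS/MS with equalised channel sums, applied to the supernatant after 21,000xg for 90 min. Samples were crude K562 extract at 1 mg/mL protein in PBS pH 7.4 with 1 mM MgCl2, treated with 10 μM compound for 30 min, heated for 3 min across 48°C-58°C, pooled and brought to 0.5% NP-40 at 4°C. Values are log-two fold changes in thermal stability relative to solvent controls, from duplicates.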

[2] = compound: CCCS(=O)(=O)Nc1ccc(F)c(C(=O)c2c[nH]c3ncc(Cl)cc23)c1F
Procedure, shortened: as §1

[3] = compound: CCN(CCCOc1ccc2c(Nc3cc(CC(=O)Nc4cccc(F)c4)[nH]n3)ncnc2c1)CCOP(=O)(O)O [barasertib]
Procedure, shortened: as §1

[4] = compound: CC[C@@H]1C(=O)N(C)c2cnc(Nc3ccc(C(=O)NC4CCN(C)CC4)cc3OC)nc2N1C1CCCC1
Procedure, shortened: as §1

[5] = compound: CC[C@@H]1C(=O)N(C)c2cnc(Nc3ccc(C(=O)N[C@H]4CC[C@H](N5CCN(CC6CC6)CC5)CC4)cc3OC)nc2N1C(C)C [volasertib]
Procedure, shortened: as §1

[6] = compound: CCn1c(C(=O)N(C2CC2)C2CC2)cc2c3c(ncn3C)c(Nc3cc(C)n(C)n3)nc21
Procedure, shortened: as §1

[7] = compound: CCn1cc(-c2ccnc3[nH]c(-c4cccc(CN(C)C)c4)cc23)c(-c2ccc(NC(=O)N(C)C)cc2)n1
Procedure, shortened: as §1

[8] = compound: CN1CCC(CNc2ccc3ncc(-c4cccc(OC(F)(F)F)c4)n3n2)CC1
Procedure, shortened: as §1

[9] = compound: CN1CCN(CCOc2cc(OC3CCOCC3)c3c(Nc4c(Cl)ccc5c4OCO5)ncnc3c2)CC1 [saracatinib]
Procedure, shortened: as §1

[10] = compound: CN1CCN(c2nc(C3=C(c4c[nH]c5ccccc45)C(=O)NC3=O)c3ccccc3n2)CC1 [sotrastaurin]
Procedure, shortened: as §1

[11] = compound: CN1CC[C@H](c2c(O)cc(O)c3c(=O)cc(-c4ccccc4Cl)oc23)[C@H](O)C1 [alvocidib]
Procedure, shortened: as §1

[12] = compound: CN1CCc2c(c3ccccc3n2Cc2ccc(C(=O)NO)cc2)C1 [Tubastatin A]
Procedure, shortened: as §1

[13] = compound: CNC(=O)C1=CC=CC=C1NC2=NC(=NC=C2Cl)NC3=C(C=C(C=C3)N4CCOCC4)OC
Procedure, shortened: as §1

[14] = compound: CNC(=O)c1ccc(Nc2ncc(C(F)(F)F)c(NCc3nccnc3N(C)S(C)(=O)=O)n2)cc1 [defactinib]
Procedure, shortened: as §1

[15] = compound: CNc1nc(-c2ccc3c(N)n[nH]c3c2)cc(N2C[C@@H](C(=O)NC3CCCCC3)CC[C@H]2C)n1
Procedure, shortened: as §1

[16] = compound: COC(=O)N[C@@H](C)CNc1nccc(-c2cn(C(C)C)nc2-c2cc(Cl)cc(NS(C)(=O)=O)c2F)n1 [encorafenib]
Procedure, shortened: as §1

[17] = compound: COC(=O)[C@H](CCSC)NC(=O)C1=C(C=C(C=C1)NC[C@H](CS)N)C2=CC=CC=C2
Procedure, shortened: as §1

[18] = compound: COc1cc(Nc2ncc3c(n2)-c2ccc(Cl)cc2C(c2c(F)cccc2OC)=NC3)ccc1C(=O)O [alisertib]
Procedure, shortened: as §1

[19] = compound: COc1cc2nc(-c3cc(F)ccc3O)nc(N[C@@H]3CNC[C@H]3C(C)(C)O)c2cc1OC
Procedure, shortened: as §1

[20] = compound: COc1cc2ncnc(Nc3ccc(F)c(Cl)c3)c2cc1OCCCN1CCOCC1 [gefitinib]
Procedure, shortened: as §1

Target | log2 fold change [1] | log2 fold change [2] | log2 fold change [3] | log2 fold change [4] | log2 fold change [5] | log2 fold change [6] | log2 fold change [7] | log2 fold change [8] | log2 fold change [9] | log2 fold change [10] | log2 fold change [11] | log2 fold change [12] | log2 fold change [13] | log2 fold change [14] | log2 fold change [15] | log2 fold change [16] | log2 fold change [17] | log2 fold change [18] | log2 fold change [19] | log2 fold change [20]
FBXO38 (UniProt Q6PIJ6) | inactive: -0.042 | inactive: -0.024 | inactive: 0.052 | inactive: -0.121 | inactive: 0.037 | inactive: 0.028 | inactive: 0.006 | inactive: 0.036 | inactive: -0.039 | inactive: 0.027 | inactive: -0.008 | inactive: -0.043 | active: -0.616 | inactive: 0.019 | inactive: 0.01 | inactive: -0.004 | inactive: -0.038 | inactive: -0.015 | inactive: -0.062 | inactive: 0.056
FHOD1 (UniProt Q9Y613) | inactive: -0.018 | inactive: 0.018 | inactive: 0.042 | inactive: -0.05 | inactive: -0.034 | inactive: 0.048 | inactive: 0.013 | inactive: -0.017 | inactive: 0.015 | inactive: 0.036 | inactive: -0.034 | inactive: -0.129 | inactive: 0.014 | inactive: 0.033 | inactive: 0.006 | inactive: 0.021 | inactive: 0.028 | inactive: 0.011 | inactive: 0.002 | inactive: -0.013
FDPS (UniProt P14324) | inactive: 0.027 | inactive: 0.004 | inactive: -0.002 | inactive: -0.021 | inactive: -0.07 | inactive: -0.038 | inactive: -0.05 | inactive: -0.038 | inactive: 0.014 | inactive: -0.013 | inactive: 0.029 | inactive: -0.098 | inactive: 0.012 | inactive: -0.013 | inactive: 0.02 | inactive: -0.001 | inactive: 0.123 | inactive: 0.008 | inactive: -0.001 | inactive: -0.033
FDFT1 (UniProt P37268) | inactive: -0.012 | inactive: 0.111 | inactive: 0.023 | inactive: 0.005 | inactive: -0.069 | inactive: 0.01 | inactive: -0.047 | inactive: -0.022 | inactive: -0.019 | active: 0.437 | inactive: 0.002 | inactive: -0.037 | inactive: -0.033 | inactive: -0.048 | inactive: -0.018 | inactive: 0.047 | inactive: -0.155 | inactive: 0.068 | inactive: 0.018 | inactive: 0.016
FKBP8 isoform 2 (UniProt Q14318) | inactive: -0.037 | inactive: -0.01 | inactive: 0.366 | inactive: -0.045 | inactive: 0.005 | inactive: -0.029 | inactive: 0.033 | inactive: -0.084 | inactive: -0.022 | inactive: 0.006 | inactive: 0.004 | inactive: -0.123 | inactive: 0.02 | inactive: 0.024 | inactive: -0.018 | inactive: 0.009 | inactive: 0.112 | inactive: 0.027 | inactive: 0.001 | inactive: 0.01
FBXO3 (UniProt Q9UK99) | inactive: -0.018 | inactive: 0.031 | inactive: -0.089 | inactive: -0.04 | inactive: -0.061 | inactive: 0.029 | inactive: -0.122 | inactive: 0.038 | inactive: -0.022 | inactive: 0.017 | inactive: 0.016 | inactive: -0.016 | inactive: 0.033 | inactive: 0 | inactive: -0.076 | inactive: 0.033 | inactive: -0.019 | inactive: -0.018 | inactive: 0.002 | inactive: 0.025
FLCN (UniProt Q8NFG4) | inactive: 0.019 | inactive: -0.052 | inactive: 0.028 | inactive: 0.007 | inactive: 0.009 | inactive: -0.048 | inactive: 0.204 | inactive: -0.02 | inactive: 0.024 | inactive: 0.031 | inactive: -0.026 | inactive: -0.012 | inactive: -0.004 | inactive: -0.001 | inactive: 0.031 | inactive: 0.008 | inactive: 0.123 | inactive: 0.083 | inactive: 0.049 | inactive: 0.039
FKBP5 (UniProt Q13451) | inactive: 0.039 | inactive: 0 | inactive: 0.015 | inactive: -0.026 | inactive: -0.039 | inactive: 0.005 | inactive: 0.039 | inactive: -0.039 | inactive: 0.006 | inactive: 0.019 | inactive: -0.005 | inactive: -0.045 | inactive: 0.006 | inactive: -0.004 | inactive: -0.003 | inactive: -0.008 | inactive: 0.146 | inactive: 0.003 | inactive: -0.002 | inactive: 0.001
FMC1 (UniProt Q96HJ9) | inactive: 0.059 | inactive: 0.04 | inactive: 0.13 | inactive: -0.07 | inactive: -0.008 | inactive: -0.041 | inactive: 0.021 | inactive: 0.029 | inactive: -0.046 | inactive: -0.026 | inactive: 0.036 | inactive: -0.034 | inactive: -0.018 | inactive: -0.11 | inactive: -0.005 | inactive: 0.163 | inactive: -0.071 |  | inactive: -0.063 | 
FLOT1 (UniProt O75955) | inactive: 0.005 | inactive: -0.003 | inactive: 0.013 | inactive: 0.021 | inactive: 0.004 | inactive: -0.023 | inactive: 0.019 | inactive: -0.012 | inactive: 0.004 | inactive: -0.027 | inactive: 0.011 | inactive: 0.114 | inactive: 0.002 | inactive: -0.002 | inactive: -0.017 | inactive: -0.042 | inactive: -0.024 | inactive: -0.015 | inactive: 0.045 | inactive: 0
FKBP7 (UniProt Q9Y680) | inactive: -0.005 | inactive: 0.004 | inactive: 0.045 | inactive: 0.019 | inactive: 0.025 | inactive: 0 | inactive: 0.064 | inactive: -0.041 | inactive: -0.022 | inactive: 0.015 | inactive: 0.083 | inactive: 0.091 | inactive: 0.023 | inactive: 0.022 | inactive: 0.062 | inactive: -0.007 | inactive: -0.166 | inactive: -0.034 | inactive: -0.002 | inactive: -0.024
FIBP (UniProt O43427) | inactive: -0.011 | inactive: 0.041 | inactive: 0.105 | active: -0.236 | inactive: -0.013 | inactive: -0.001 | inactive: -0.028 | inactive: -0.021 | inactive: 0.039 | inactive: 0.008 | inactive: 0.03 | inactive: 0.003 | inactive: 0.05 | inactive: 0.1 | inactive: -0.079 | inactive: 0.036 | inactive: 0.094 | inactive: 0.012 | inactive: 0.002 | inactive: -0.005
FHL2 (UniProt Q14192) | inactive: 0.045 | inactive: 0.034 | inactive: -0.007 | inactive: 0.068 | inactive: 0.067 | inactive: -0.026 | inactive: -0.064 | inactive: 0.042 | inactive: -0.011 | inactive: -0.111 | inactive: -0.025 | inactive: 0.048 | inactive: 0.044 | inactive: 0.008 | inactive: 0.037 | inactive: 0.034 | inactive: -0.064 | inactive: -0.014 | inactive: 0.014 | inactive: -0.042
FDXR isoform 7 (UniProt P22570) | inactive: 0.072 | inactive: 0.02 | inactive: -0.037 | inactive: -0.016 | inactive: -0.039 | inactive: 0.025 | inactive: -0.087 | inactive: -0.016 | inactive: 0.022 | inactive: 0.043 | inactive: 0.028 | inactive: -0.07 | inactive: 0.009 | inactive: 0.009 | inactive: 0.016 | inactive: -0.012 | inactive: 0.165 | inactive: 0.007 | inactive: -0.025 | inactive: -0.012
FIS1 (UniProt Q9Y3D6) | inactive: -0.023 | inactive: 0.029 | inactive: 0.015 | inactive: 0.063 | inactive: 0.094 | inactive: -0.061 | inactive: 0.022 | inactive: -0.007 | inactive: 0.008 | inactive: -0.049 | inactive: -0.007 | inactive: 0.108 | inactive: 0.058 | inactive: 0.021 | inactive: 0.161 | inactive: 0.08 | inactive: -0.019 | inactive: -0.03 | inactive: -0.009 | inactive: -0.037
FBXO4 (UniProt Q9UKT5) | inactive: -0.022 | inactive: 0.001 | inactive: 0.01 | inactive: 0.023 | inactive: -0.018 | inactive: 0.031 | inactive: -0.074 | inactive: -0.021 | inactive: -0.019 | inactive: 0.022 | inactive: -0.005 | inactive: -0.113 | inactive: 0.052 | inactive: 0.006 | inactive: -0.012 | inactive: 0.005 | inactive: 0.02 | inactive: -0.04 | inactive: 0.015 | inactive: 0.027

Looked up one by one from the list above:
Target | log2 fold change [1] | log2 fold change [2] | log2 fold change [3] | log2 fold change [4] | log2 fold change [5] | log2 fold change [6] | log2 fold change [7] | log2 fold change [8] | log2 fold change [9] | log2 fold change [10] | log2 fold change [11] | log2 fold change [12] | log2 fold change [13] | log2 fold change [14] | log2 fold change [15] | log2 fold change [16] | log2 fold change [17] | log2 fold change [18] | log2 fold change [19] | log2 fold change [20]
FIBP (UniProt O43427) | inactive: -0.011 | inactive: 0.041 | inactive: 0.105 | active: -0.236 | inactive: -0.013 | inactive: -0.001 | inactive: -0.028 | inactive: -0.021 | inactive: 0.039 | inactive: 0.008 | inactive: 0.03 | inactive: 0.003 | inactive: 0.05 | inactive: 0.1 | inactive: -0.079 | inactive: 0.036 | inactive: 0.094 | inactive: 0.012 | inactive: 0.002 | inactive: -0.005
FKBP5 (UniProt Q13451) | inactive: 0.039 | inactive: 0 | inactive: 0.015 | inactive: -0.026 | inactive: -0.039 | inactive: 0.005 | inactive: 0.039 | inactive: -0.039 | inactive: 0.006 | inactive: 0.019 | inactive: -0.005 | inactive: -0.045 | inactive: 0.006 | inactive: -0.004 | inactive: -0.003 | inactive: -0.008 | inactive: 0.146 | inactive: 0.003 | inactive: -0.002 | inactive: 0.001
